Among the test systems are ZNF655 (human); ZNF695 (human); ZNF718 (human); ZNF765 (human); ZRANB1 (human); ZSCAN18 (human).
Holding throughout (assay): protein microarray (ProtoArray v5.0), streptavidin-Alexa Fluor 647
Holding throughout (details): 3'-biotin; 20 mM Tris (pH 7.5), 5 mM MgCl2, 100 mM KCl, 0.1% Tween-20, A/T-rich and random oligonucleotide blockers; temperature not stated; high values mean tight binding

Another assay concerns the target T1, ZRF1 (UniProt Q99543).
T1 sequence: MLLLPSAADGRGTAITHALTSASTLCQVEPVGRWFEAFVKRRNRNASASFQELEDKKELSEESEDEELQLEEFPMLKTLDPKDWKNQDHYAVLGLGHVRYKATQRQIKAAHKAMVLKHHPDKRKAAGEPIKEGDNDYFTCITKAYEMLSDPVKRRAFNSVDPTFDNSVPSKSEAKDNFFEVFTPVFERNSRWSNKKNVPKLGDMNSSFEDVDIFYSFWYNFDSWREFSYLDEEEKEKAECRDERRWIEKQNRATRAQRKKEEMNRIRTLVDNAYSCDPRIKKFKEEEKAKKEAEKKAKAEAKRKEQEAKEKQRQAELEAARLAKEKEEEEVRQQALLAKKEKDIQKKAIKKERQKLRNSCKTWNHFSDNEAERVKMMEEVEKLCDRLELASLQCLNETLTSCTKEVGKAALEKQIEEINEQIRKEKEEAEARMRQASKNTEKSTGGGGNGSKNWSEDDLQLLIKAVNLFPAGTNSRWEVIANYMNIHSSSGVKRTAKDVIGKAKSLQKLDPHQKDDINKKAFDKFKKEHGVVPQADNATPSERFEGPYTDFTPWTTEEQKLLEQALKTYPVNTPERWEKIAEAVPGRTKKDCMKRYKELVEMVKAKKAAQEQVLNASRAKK

A further assay concerns the target T2, ZW10 (UniProt O43264).
T2 sequence: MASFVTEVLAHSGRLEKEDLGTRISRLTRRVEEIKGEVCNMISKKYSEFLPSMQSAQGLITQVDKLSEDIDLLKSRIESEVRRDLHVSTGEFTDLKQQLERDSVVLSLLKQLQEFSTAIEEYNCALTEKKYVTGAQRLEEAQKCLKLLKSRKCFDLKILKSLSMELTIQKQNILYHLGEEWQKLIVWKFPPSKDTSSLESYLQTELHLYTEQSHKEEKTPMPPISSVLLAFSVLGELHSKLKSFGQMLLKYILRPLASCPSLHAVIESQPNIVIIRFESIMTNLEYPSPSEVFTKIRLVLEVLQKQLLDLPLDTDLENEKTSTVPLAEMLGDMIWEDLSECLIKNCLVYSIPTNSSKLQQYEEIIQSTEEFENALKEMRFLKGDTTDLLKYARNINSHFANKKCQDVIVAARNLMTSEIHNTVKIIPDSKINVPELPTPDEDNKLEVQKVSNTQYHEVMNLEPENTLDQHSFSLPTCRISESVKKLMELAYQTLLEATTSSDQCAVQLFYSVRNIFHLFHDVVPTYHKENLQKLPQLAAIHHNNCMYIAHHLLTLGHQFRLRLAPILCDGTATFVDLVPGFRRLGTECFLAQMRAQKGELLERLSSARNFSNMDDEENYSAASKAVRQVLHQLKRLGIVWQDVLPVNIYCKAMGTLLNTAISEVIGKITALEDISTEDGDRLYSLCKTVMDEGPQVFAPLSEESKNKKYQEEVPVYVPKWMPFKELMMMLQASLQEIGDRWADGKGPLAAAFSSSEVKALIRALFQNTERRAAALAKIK

The target in a further assay is T3, ZWINT (UniProt O95229).
T3 sequence: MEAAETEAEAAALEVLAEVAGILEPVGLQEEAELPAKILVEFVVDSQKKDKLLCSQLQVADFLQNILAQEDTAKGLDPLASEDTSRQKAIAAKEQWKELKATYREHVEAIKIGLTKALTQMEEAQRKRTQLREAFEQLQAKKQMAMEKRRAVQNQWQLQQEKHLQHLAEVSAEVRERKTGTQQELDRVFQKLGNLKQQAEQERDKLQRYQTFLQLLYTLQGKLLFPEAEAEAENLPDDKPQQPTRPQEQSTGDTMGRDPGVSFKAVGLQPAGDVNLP

For assay [1], the system named is Zinc finger BED domain-containing protein 1 (human).

The other results are listed elsewhere or left out. For some of these results: The source does not settle which construct or isoform was used.

For the sequence “GGGAGGCTGAGGCAGG [G4-1 biotinylated (PQS2)]”, the binding signal was -0.316 z-score in the assay with ZNF655 (human); -0.319 z-score in the assay on ZNF695 (human); -0.337 z-score in the assay on ZNF718 (human); -0.336 z-score with ZNF765 (human); -0.321 z-score with ZRANB1 (human); -0.342 z-score with ZRF1. For the same sequence, the binding signal was -0.358 z-score in the assay on ZSCAN18 (human), -0.329 z-score in the assay with ZW10, -0.35 z-score with ZWINT and -0.354 z-score in [1].

The record behind these values is publication PMC5996148.
